Measured values as given in PMC5653651.
Results are given in words; binding and its absence hold for the method and conditions named. Some entries that bind do so weakly or less than the wild type.

Molecular target: ScNup82-Flag-TEV-ProtA (Saccharomyces cerevisiae) (UniProt P40368)
Experiment: affinity co-purification of co-expressed proteins; ScNup82 complex from yeast co-expressing the four proteins, tandem: IgG beads, TEV protease, anti-Flag beads, Flag peptide

binding: binds
Substance: ScDyn2 (from UniProt Q02647 1-92)
